# This list was built around the results that the source calls inconclusive (neither active nor inactive); the mix of calls is not that of the screen. Potencies of inconclusive entries are doubtful fits and often do not repeat. The source made the active and inactive calls. Calls come from the whole dose curve; as a rule, active = well fitted cell-killing curve with a large enough effect; inconclusive = small, poorly fitted or top-dose-only effect, or effect the other way; inactive = no such curve, though single readings can be large or run the other way.
# System: JEG-3
# Experiment: Confirmatory qHTS for gynecologic anti-cancer compounds from libraries of approved drugs and bioactive compounds; note: nearly all actives have a fitted effect of over 55% in size
# Conditions: gynecologic cancer cell panel viability, ATPlite luminescence, 48 h; series mostly up to 57.6 µM
# Method in brief: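 Cells (1,000/well) were plated, left 16 h at 37 C/5% CO2, then given compound at 11 concentrations (1:3) from 57.5 uM to 0.977 nM for 48 h. ATPlite luminescence after 15 min at room temperature gave IC50 values.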
# Potency is the fitted concentration of half-maximal effect.
row,SMILES,Potency
1,Cc1cc(Nc2cc(N3CCN(C)CC3)nc(/C=C/c3ccccc3)n2)n[nH]1,"inconclusive: 7.69 µM [cytotoxic, full curve]"
2,C#C[C@]1(O)CC[C@H]2[C@@H]3CCC4=CC(=O)CC[C@@H]4[C@H]3CC[C@@]21CC,inactive
3,CC1(C)[C@@H](O)CC[C@]2(C)[C@H]3C(=O)C=C4[C@@H]5C[C@@](C)(C(=O)O)CC[C@]5(C)CC[C@@]4(C)[C@]3(C)CC[C@@H]12,"inconclusive: 0.0153 µM [rising, partial curve, poor fit]"
4,Cc1ccn(-c2ccc(-c3ncco3)cc2)c(=O)c1-c1ccc2nc(N)ncc2c1,"inconclusive: 17.2 µM [rising, partial curve]"
5,CCN[C@H]1C[C@H](C)S(=O)(=O)c2sc(S(N)(=O)=O)cc21,"inconclusive: 1.72 µM [rising, full curve, poor fit]"
6,COc1cccc2cc(-c3nc(C4CCC(C(=O)O)CC4)n4ncnc(N)c34)[nH]c12 (stereo unspecified),inactive

# Source: PubChem BioAssay AID1345085 (National Center for Advancing Translational Sciences (NCATS), 2018)
